Source: PMC5386549
These are yes or no findings as the source states them, for the method shown. For some of these results: Binding seen in cells or lysates may run through a third protein. Some binding calls cover weakened binding; strength is not graded here.

Tests used:
[1] = target: Ras homolog gene family member A (RhoA), mouse, endogenous in ZW13-2 or Zpl3-4 cells (mouse (endogenous in ZW13-2 and Zpl3-4 cells)) (UniProt Q9QUI0); assay: co-IP
[2] = target: Ras homolog gene family member A (RhoA), mouse, endogenous in ZW13-2 or Zpl3-4 cells (mouse (endogenous in ZW13-2 and Zpl3-4 cells)) (UniProt Q9QUI0); assay: co-IP; […]) antibody 2 h at 4 °C, […]
[3] = target: Ras homolog gene family member A (RhoA), mouse, endogenous in ZW13-2 or Zpl3-4 cells (mouse (endogenous in ZW13-2 and Zpl3-4 cells)) (UniProt Q9QUI0); assay: pull-down; only the binder purified
[4] = target: purified recombinant GST-RhoA (UniProt P61586); assay: pull-down; […] (10 μg/ml in 500 μl) […]; 50 mM Tris-HCl pH 7.5, 1x PBS, 10% glycerol; […]; both purified

For “cellular prion protein (PrP^C), mouse, endogenous in ZW13-2 cells (from UniProt P04925 23-230)”, the binding [1] was “binds” and the binding [2] was “binds”.
With “purified human recombinant PrP (Hu-PrP) (from UniProt P04156 23-230)” the binding [3] was “binds” and the binding [4] was “binds”.
